Measurements reported in patent US20250009844A1, “MATURATION OF MUCOSAL DEFENSE AND GUT/LUNG FUNCTION IN THE PRETERM INFANT” (Novozymes A/S, priority 2017, published 2025).
At least one structure is not confirmed: it was looked up by name or label, or the drawing left a doubt.

Key:
[1] = tested on: SCID mice; experiment: Therapeutic, murine, 14 weeks, CD4+CD25+ T cell transfer induced colitis model (Example 4); type: in vivo
From the text: Treatment regime: 70 female BALB/c mice housed in groups of five per cage were allocated to 7 different treatment groups. Colitis was induced in SCID mice by transplantation of CD4+CD25 Tcells from BALB/c mice. Lymphocytes isolated from spleen and lymph nodes from BALB/c mice were subjected to negative selection of CD4+Tcells. Afterwards, CD4+CD25+cells were positively isolated by binding to the beads from the CD4+Tcell suspensions and the CD4+CD25—were collected from the supernatant. The animals were treated with hBD-2, 0.1 mg/kg s.c. once daily 86consecutive days from day 7 (OD); 1 mg/kg s.c. OD or 3 mg/kg s.c. OD;with mouse anti TNFa 100 μg/mouse s.c. twice weekly (enbrel); with dexamethasone 0.3 mg/kg intraperitoneally OD (dex); with PBS s.c. as vehicle from day 7 and 86 consecutive days (vehicle) or sham treated (sham).
Treatment groups: • 1. 0.1 mg/kg hBD-2, once daily subcutaneously (n=11) • 2. 1 mg/kg hBD-2, once daily subcutaneously (n=11) • 3. 3 mg/kg hBD-2, once daily subcutaneously (n=11) • 4. PBS (hBD-2 vehicle), once daily subcutaneously (n=11) • 5. 0.3 mg/kg Dexamethasone, once daily intraperitoneally (n=11) • 6. 100 μg/mouse soluble human 75-kilodalton TNF receptor linked to Fc portion of IgG1 (Enbrel), twice a week subcutaneously (n=11) • 7. Sham treated group (n=6)
Clinical assessment was based on body weight loss, stool consistency and presence of blood per rectum. The animals were sacrificed on day 95 and colon removed for assessment of weight and myeloperoxidase activity.

[2] = tested on: BALB/c mice; experiment: Therapeutic intervention in murine house dust mite/Freund's complete adjuvant driven model of allergic asthma (Example 6); type: in vivo
Description: Treatment regime: Female 7-10 weeks old BALB/c mice were randomly allocated into 6 study groups one day prior to study start and subcutaneously (SC) sensitized to house dust mite (100 μg HDM in 200 μL saline plus Freund's complete adjuvant in 0.9% saline). Mice were then intranasally (IN) challenged with HDM on day 14 (HDM 25 μg in 50 μL of saline). Dexamethasone was administered orally (1 mg/kg BID; 50 μL phosphate buffered saline (PBS)) on day 14. hBD-2 was administered IN or orally (1.7 mg/kg TID IN; 0.4 mg/kg TID IN; 0.4 mg/kg TID orally, 50 μL phosphate buffered saline) on day 14. The initial dose was administered 60 minutes prior to challenge, and the subsequent two doses approximately 6 hours apart (FIG. 3).
Airway inflammation: At 48 hours post challenge, bronchoalveolar lavage was performed washing the lungs with 3 volumes of cold PBS (0.4; 0.3 and 0.3 mL, total 1 mL). Total and differential leucocyte cell counts were determined on an automated haematological analyser Sysmex XT-2000iV.
Data are represented as airway resistance at […] methacholine and as dose responsive curves. Lung sampling for cytokine analysis: After completion of every BAL, lungs were removed from the thorax, snap frozen in liquid nitrogen and stored frozen at −80 degrees Celsius until analysis of cytokine concentration of IL-1β, TNF-α, IL-6, IL-10 and IFNγ by ELISA.

[3] = tested on: hBD-2 expression; details: cited from earlier work
[4] = same three dosing regimens, sacrifice day 95
[5] = hBD-2 intranasal, both doses, dexamethasone 1 mg/kg BID orally
[6] = oral: hBD-2 0.4 mg/kg TID, dexamethasone 1 mg/kg BID, vs HDM/vehicle control

In the case of `C[C@@H]1C[C@H]2[C@@H]3CCC4=CC(=O)C=C[C@]4(C)[C@@]3(F)[C@@H](O)C[C@]2(C)[C@@]1(O)C(=O)CO` [Dexamethasone, reference compound], the “Clinical score (body weight loss, stool consistency, blood per rectum)” value ([1]; hBD-2 1 mg/kg s.c. OD, Dexamethasone 0.3 mg/kg i.p. OD, Enbrel 100 μg/mouse s.c. twice weekly, from day 7) is reported as “statistically significant and similar effect on clinical score”, the Colon weight [1, 4] is reported as “statistically significant and similar effect on colon weight” and the “Myeloperoxidase activity in intestinal tissue” value [1, 4] is reported as “statistically significant and similar effect”. For the same compound, the “Total cell count in BALF” value ([2]; 48 hours post challenge, hBD-2 intranasal, both doses (0.4 mg/kg/day TID and 1.7 mg/kg/day TID), dexamethasone 1 mg/kg BID orally) was “significantly inhibited total cell and eosinophil counts”, the “Lymphocyte count in BALF” value ([2]; dexamethasone 1 mg/kg BID orally) was “but not neutrophil, macrophage and lymphocyte counts” and the “Eosinophil count in BALF” value [2, 5] was “significantly inhibited total cell and eosinophil counts”. For the same compound, the “Macrophage count in BALF” value [2, 5] was “but not neutrophil, macrophage and lymphocyte counts”, the “Neutrophil count in BALF” value [2, 5] was “but not neutrophil, macrophage and lymphocyte counts” and the “Increase of airway resistance (AHR)” value ([2]; oral on day 14: hBD-2 0.4 mg/kg TID, dexamethasone 1 mg/kg BID, vs HDM challenged vehicle) was “influenced AHR measurements”. For the same compound, the “IFN-γ level in lung tissue homogenate” value [2, 6] was “did not influence levels”, the “IL-6 level in lung tissue homogenate” value [2, 6] was “did not influence levels” and the “IL-10 level in lung tissue homogenate” value [2, 6] was “did not influence levels”. For the same compound, the “TNF-α level in lung tissue homogenate” value [2, 6] was “did not influence levels” and the hBD-2 expression [3] was “significant decrease in hBD-2 expression”.
